Results: patent US6709830B2, “Methods for modulating the activation of a lymphocyte expressed G protein coupled receptor involved in cell proliferation, autoimmunity and inflammation” (The Regents of the University of California, priority 1997, dated 2004)
Some entries share one result that the patent states for a list of compounds. At least one compound was matched to its structure with a doubt left.

Molecular target: T1, G2A.GFP fusion receptor (Mus musculus, UniProt Q9Z282)
T1 construct: expressed in transfected cells; host or cells: HEK 293 cells infected with amphotropic MSCV G2A.GFP retrovirus
T1 sequence (Q9Z282 1-382): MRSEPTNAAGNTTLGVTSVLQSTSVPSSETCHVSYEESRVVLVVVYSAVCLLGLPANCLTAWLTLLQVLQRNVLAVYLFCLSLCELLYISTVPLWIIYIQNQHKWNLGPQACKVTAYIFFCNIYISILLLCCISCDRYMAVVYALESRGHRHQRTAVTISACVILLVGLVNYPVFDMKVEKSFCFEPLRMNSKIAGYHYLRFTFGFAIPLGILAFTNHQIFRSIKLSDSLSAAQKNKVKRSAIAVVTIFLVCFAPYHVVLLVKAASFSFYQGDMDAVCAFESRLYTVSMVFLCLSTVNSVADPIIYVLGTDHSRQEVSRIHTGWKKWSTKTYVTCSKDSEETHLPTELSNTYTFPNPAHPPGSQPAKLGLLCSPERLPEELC
Assay: Internalisation of G2A.GFP in HEK 293 G2A.GFP cells (confocal microscopy)
Assay type: cell-based
Settings: lipid 1 μM, 2 hours, serum starved HEK 293 G2A.GFP cells
Description: Agonist dependent receptor internalisation is a feature of GPCRs. G2A.GFP expressing HEK 293 cells (HEK 293 G2A.GFP) were generated by infection with amphotropic MSCV G2A.GFP retroviruses. In serum starved HEK 293 G2A.GFP cells, G2A.GFP is expressed predominantly on the plasma membrane. LPC (0.1 μM), as well as SPC (1 μM), induced internalisation of G2A.GFP in over 90% of cells (FIG. 6). Neither LPA, S-1-P or PAF induced G2A internalisation, which is consistent with LPC acting as a specific ligand for G2A. Treatment of HEK 293 G2A.GFP cells with SPC at low concentrations (0.1 μM) induced receptor internalisation in fewer cells (<50%).
HEK 293 G2A.GFP cells were seeded onto glass coverslips and subsequently serum starved for 16-24 hours prior to treatment with lipids. Two hours following lipid treatment, coverslips were washed with cold PBS and fixed with PBS/4% paraformaldehyde. Subcellular localisation of G2A.GFP was visualised under a confocal fluorescence microscope with a 60× oil immersion lens.

For `CCCCCCCCCCCCC/C=C/[C@@H](O)[C@@H](N)COP(=O)([O-])OCC[N+](C)(C)C` [SPC, sphingosylphosphorylcholine], the “cells with internalisation of G2A.GFP” value was “over 90%”.
